PubChem BioAssay AID1224828, NIAID, 2016
The whole screen tested about 17,000 reagents; below is a part drawn at random. Of all reagents, 762 (4.5%) were called active. 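Active calls include both raised and lowered p65 entry, mostly lowered; wells with fewer than 50 cells lack a z-score.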 Raw values are not corrected between plates.

Assay: 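Knock-downs that increase or decrease LPS-induced p65 nuclear translocation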 (primary screen)
Cell system: mouse RAW264.7 G9 macrophage reporter cells (GFP-p65, Tnf promoter-mCherry)
Reagents: siRNA pool against mouse genes, 100 nM
Timing: 2 days siRNA transfection, then 40 min LPS before fixation
Treatment: LPS (Salmonella minnesota R595) at 10 ng/ml
Measurement: 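Imaged p65 nuclear translocation ratio, normalised to the plate median, converted to robust z-scores and averaged across two replicates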
Reading the numbers: p65 translocation robust z-score: higher = more nuclear NF-kappaB p65 after LPS than the plate median; nuclear/cytoplasmic p65 ratio: higher = more nuclear NF-kappaB p65
Active means: 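Active if robust z is above 3.3 (negative regulators) or below -1.56, the Tlr4 control median (positive regulators); activity score 50 or more; control wells not called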
Calls: active = hit (p65 shift raised or lowered); inactive = no clear change

Target gene | p65 translocation robust z-score | nuclear/cytoplasmic p65 ratio, rep 1 | nuclear/cytoplasmic p65 ratio, rep 2 | low cell count flag | outcome
5330439M10Rik (GeneID 78237) | – | 1.14 | 2.33 | fewer than 50 cells per well; well left out of scoring | inactive
Atf6 (GeneID 226641) | 0.82 | 1.74 | 1.73 | enough cells to score | inactive
Cbln4 (GeneID 228942) | 0.4 | 1.67 | 1.83 | enough cells to score | inactive
Foxa3 (GeneID 15377) | 0.96 | 1.51 | 1.55 | enough cells to score | inactive
Mmadhc (GeneID 109129) | – | 1.27 | 1.14 | fewer than 50 cells per well; well left out of scoring | inactive
Crct1 (GeneID 74175) | – | 1.26 | 1.6 | fewer than 50 cells per well; well left out of scoring | inactive
Pura (GeneID 19290) | -0.61 | 1.54 | 1.33 | enough cells to score | inactive
Or13a22 (GeneID 258956) | -0.62 | 1.33 | 1.22 | enough cells to score | inactive
Lsm2 (GeneID 27756) | 1.43 | 1.89 | 1.8 | enough cells to score | inactive
Haus1 (GeneID 225745) | -0.66 | 1.28 | 1.3 | enough cells to score | inactive
Hars1 (GeneID 15115) | 0.07 | 1.7 | 1.51 | enough cells to score | inactive
Ceacam19 (GeneID 319930) | -0.66 | 1.4 | 1.38 | enough cells to score | inactive
Gja3 (GeneID 14611) | -1.48 | 1.3 | 1.12 | enough cells to score | inactive
Sh3bp5 (GeneID 24056) | -1.24 | 1.23 | 1.4 | enough cells to score | inactive
Sec14l2 (GeneID 67815) | -0.42 | 1.56 | 1.42 | enough cells to score | inactive
Plekha3 (GeneID 83435) | -0.2 | 1.33 | 1.21 | enough cells to score | inactive
Defa-rs10 (GeneID 13219) | 0.26 | 1.59 | 1.6 | enough cells to score | inactive
BC053071 | -0.36 | 1.38 | 1.48 | enough cells to score | inactive
Dnajc1 (GeneID 13418) | 0.61 | 1.58 | 1.41 | enough cells to score | inactive
Or7g33 (GeneID 258908) | -0.76 | 1.34 | 1.25 | enough cells to score | inactive
Mrps18a (GeneID 68565) | -2.54 | 1.48 | 1.11 | enough cells to score | active
Prpf4 (GeneID 70052) | 0.2 | 1.53 | 1.43 | enough cells to score | inactive
Aqp8 (GeneID 11833) | -0.69 | 1.53 | 1.5 | enough cells to score | inactive
Ccr3 (GeneID 12771) | 0.61 | 1.59 | 1.54 | enough cells to score | inactive
Gzmg (GeneID 14944) | 0.58 | 1.5 | 1.64 | enough cells to score | inactive
Sh3rf1 (GeneID 59009) | 0.16 | 1.51 | 1.27 | enough cells to score | inactive
Or52n20 (GeneID 259052) | -0.86 | 1.29 | 1.2 | enough cells to score | inactive
Tbcc (GeneID 72726) | 0.19 | 1.49 | 1.6 | enough cells to score | inactive
Fkbp6 (GeneID 94244) | 0.5 | 1.45 | 1.49 | enough cells to score | inactive
Sult2b1 (GeneID 54200) | 1.36 | 1.58 | 1.4 | enough cells to score | inactive
Ttc33 (GeneID 67515) | – | 1.32 | 1.32 | fewer than 50 cells per well; well left out of scoring | inactive
Tmem40 (GeneID 94346) | – | 1.32 | 1.43 | fewer than 50 cells per well; well left out of scoring | inactive
Zfp606 (GeneID 67370) | – | 1.63 | 1.45 | fewer than 50 cells per well; well left out of scoring | inactive
Fcgbpl1 (GeneID 319482) | -0.23 | 1.46 | 1.45 | enough cells to score | inactive
Cyp2d10 (GeneID 13101) | -0.07 | 1.51 | 1.84 | enough cells to score | inactive
Tom1 (GeneID 21968) | -0.06 | 1.57 | 1.46 | enough cells to score | inactive
Tiam1 (GeneID 21844) | 0.37 | 1.47 | 1.67 | enough cells to score | inactive
Vmn1r56 (GeneID 81015) | 0.13 | 1.39 | 1.25 | enough cells to score | inactive
Ndufa9 (GeneID 66108) | -0.75 | 1.73 | 1.42 | enough cells to score | inactive
Bmp3 (GeneID 110075) | -1.12 | 1.45 | 1.44 | enough cells to score | inactive
